Values from PubChem BioAssay AID1259254 (NCATS, 2017)
Purpose: 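Finding genes that stop cells copying their DNA twice in one cycle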 (primary screen). Cells: human HCT116 colorectal cancer cells. Reagents: single siRNA against human genes. Duration: 3 days. Detection: 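Nuclei stained with Hoechst and imaged; cell-cycle phase assigned by DNA content; G2 share scaled per plate, non-targeting siRNA 0%, GMNN siRNA 100%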. Scale: G2 robust z-score and G2 cells, % of GMNN control: higher = more G2 cells, more excess DNA replication. Active means: 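An siRNA counts as active if its G2 robust z-score lies at least 5 MADs above the screen median; here such calls match roughly 38% of GMNN control or more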.
This is an unselected part of about 59,000 reagents. About 1,550 of them (2.6%) were called active. 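G2 share is only a proxy for re-replication; each gene was hit by three separate siRNAs, and active genes were retested.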 Entries without a mark were called inactive. The numbers tell different reagents against one gene apart. Not all columns of the deposit are shown. Not stated in the record: the amount of reagent.

no.	gene	reagent no.	G2 robust z-score	G2 cells, % of GMNN control
1	HOXD3	1	-0.557	-0.955
2	HOXD3	2	-0.767	-2.43
3	HOXD3	3	-0.942	-3.66
4	ARHGEF9	1	2.82	22.8
5	ARHGEF9	2	0.664	7.64
6	ARHGEF9	3	0.675	7.72
7	SLC16A1	1	0.0449	3.28
8	SLC16A1	2	-0.243	1.25
9	SLC16A1	3	0.174	4.19
10	SUPT5H	1	2.2	18.5
11	SUPT5H	2	8.27 (active)	61.2
12	SUPT5H	3	0.0583	3.38
13	PRR23A	1	0.346	5.4
14	PRR23A	2	0.287	4.99
15	PRR23A	3	0.042	3.26
16	KRTAP23-1	1	0.0827	3.55
17	KRTAP23-1	2	8.63 (active)	63.7
18	KRTAP23-1	3	-0.749	-2.3
19	ERCC1	1	0.0986	3.66
20	ERCC1	2	-0.651	-1.61
21	ERCC1	3	-0.0118	2.88
22	FBXO24	1	0.657	7.59
23	FBXO24	2	-0.993	-4.02
24	FBXO24	3	-0.449	-0.189
25	FAM117A	1	1.99	16.9
26	FAM117A	2	-0.516	-0.664
27	FAM117A	3	-0.397	0.176
28	TIMM13	1	6.59 (active)	49.3
29	TIMM13	2	-0.33	0.646
30	TIMM13	3	1.53	13.7
31	LOC643339	1	-0.317	0.736
32	LOC643339	2	1.62	14.4
33	LOC643339	3	4.34	33.5
34	USP9Y	1	0.129	3.88
35	USP9Y	2	-0.21	1.49
36	USP9Y	3	-0.416	0.038
37	CCDC28B	1	0.766	8.36
38	CCDC28B	2	-1.12	-4.89
39	CCDC28B	3	3.94	30.7
40	SMIM14	1	-0.649	-1.6
41	SMIM14	2	0.243	4.68
42	SMIM14	3	0.708	7.95
43	SLC25A14	1	-0.792	-2.6
44	SLC25A14	2	1.55	13.8
45	SLC25A14	3	0.194	4.33
46	RABL3	1	1.21	11.5
47	RABL3	2	-0.316	0.747
48	RABL3	3	0.842	8.89
49	IZUMO1	1	0.00323	2.99
50	IZUMO1	2	-0.669	-1.74
51	IZUMO1	3	-0.92	-3.51
52	CLIC6	1	2.29	19.1
53	CLIC6	2	-0.389	0.228
54	CLIC6	3	0.485	6.38
55	WDR53	1	-0.327	0.665
56	WDR53	2	3.85	30.1
57	WDR53	3	0.839	8.87
58	ASS1	1	1.15	11
59	ASS1	2	1.1	10.7
60	ASS1	3	-0.607	-1.3
61	PRPF4BP1	1	-0.789	-2.59
62	PRPF4BP1	2	0.66	7.61
63	PRPF4BP1	3	2.09	17.6
64	CDH11	1	0.496	6.45
65	CDH11	2	0.818	8.72
66	CDH11	3	0.52	6.62
67	PGAM5	1	0.387	5.69
68	PGAM5	2	-0.341	0.571
69	PGAM5	3	0.00908	3.03
